Tested on: Hela
Assay: Anti-proliferative activity, CTG assay, Hela cells
Format: cell-based
Details: Homo sapiens, 72 h, read-out: Inhibition rate Hela (%)
Description: RPMI 8226 and HL-7702 cells were cultured in RPMI-1640 medium, Hela cells were cultured in MEM medium, and HL-60 cells were cultured in IMDM medium with 1% penicillin–streptomycin solution and 10% FBS, respectively. The above cells were cultured at 37 °C and 5% CO2. After 24 h of cell spreading, 99 μL of medium per well was prepared and 1 μL of the compound prepared solution was added to the wells. Then, the solution was incubated at 37 °C in a 5% CO2 incubator for 72 h. The cell plates to be tested were left at room temperature and 100 μL of medium per well was discarded. Then, 100 μL of CTG reagent was added, placed in a rapid shaker for 2 min, and left at room temperature away from light for 30 min. The chemiluminescence signal was read by an envision multifunctional enzyme marker. The inhibition ratios and IC50 values were calculated using Prism Graph Pad software.

O=C(CCCCCCC(=O)Nc1ccccc1)NO [SAHA, vorinostat, reference compound]
inhibition at 10 µM (10 μM): 96.06 ± 0.7% | inhibition at 50 µM (50 μM): 99.78 ± 0.15%
